{"sequences": {"note": "Sequences of proteins named here, by UniProt entry; tags and fusion partners are left off.", "UniProt Q68Y81": "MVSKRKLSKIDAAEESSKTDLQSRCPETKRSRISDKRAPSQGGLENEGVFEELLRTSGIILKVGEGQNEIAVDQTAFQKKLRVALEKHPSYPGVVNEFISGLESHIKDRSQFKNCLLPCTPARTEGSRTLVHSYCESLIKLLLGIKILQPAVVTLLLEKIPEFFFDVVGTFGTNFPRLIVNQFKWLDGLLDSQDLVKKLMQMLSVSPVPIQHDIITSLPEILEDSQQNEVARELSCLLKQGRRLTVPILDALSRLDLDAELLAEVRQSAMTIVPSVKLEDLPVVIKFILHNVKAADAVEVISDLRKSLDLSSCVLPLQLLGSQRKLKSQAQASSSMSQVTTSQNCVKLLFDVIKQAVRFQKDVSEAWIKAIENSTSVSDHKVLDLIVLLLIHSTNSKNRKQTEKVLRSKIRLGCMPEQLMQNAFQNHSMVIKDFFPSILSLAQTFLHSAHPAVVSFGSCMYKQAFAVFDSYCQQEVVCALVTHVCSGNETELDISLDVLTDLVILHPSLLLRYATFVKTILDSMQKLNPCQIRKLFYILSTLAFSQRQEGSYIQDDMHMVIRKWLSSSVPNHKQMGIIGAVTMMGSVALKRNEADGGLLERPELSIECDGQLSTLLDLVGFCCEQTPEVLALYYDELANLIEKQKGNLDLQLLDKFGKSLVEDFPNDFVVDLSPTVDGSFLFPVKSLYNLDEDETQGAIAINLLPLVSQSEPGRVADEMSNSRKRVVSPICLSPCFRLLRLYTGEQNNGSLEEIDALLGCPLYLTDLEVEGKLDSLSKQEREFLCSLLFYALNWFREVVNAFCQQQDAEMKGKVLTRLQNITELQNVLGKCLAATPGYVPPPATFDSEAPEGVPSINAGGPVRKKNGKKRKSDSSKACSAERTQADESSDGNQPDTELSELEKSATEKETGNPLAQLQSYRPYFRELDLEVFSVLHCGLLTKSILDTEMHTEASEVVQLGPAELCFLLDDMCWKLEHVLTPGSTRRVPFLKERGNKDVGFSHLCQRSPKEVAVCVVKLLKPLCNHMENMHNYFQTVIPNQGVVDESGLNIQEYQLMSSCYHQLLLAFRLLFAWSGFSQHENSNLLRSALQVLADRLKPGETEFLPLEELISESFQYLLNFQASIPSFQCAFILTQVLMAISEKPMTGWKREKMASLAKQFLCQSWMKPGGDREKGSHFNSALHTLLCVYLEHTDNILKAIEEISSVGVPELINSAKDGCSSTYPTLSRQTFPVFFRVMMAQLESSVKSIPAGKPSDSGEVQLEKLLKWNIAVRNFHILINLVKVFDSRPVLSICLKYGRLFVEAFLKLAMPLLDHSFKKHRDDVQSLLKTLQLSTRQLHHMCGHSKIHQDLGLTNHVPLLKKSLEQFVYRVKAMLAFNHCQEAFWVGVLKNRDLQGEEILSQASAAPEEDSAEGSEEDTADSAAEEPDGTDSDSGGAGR"}, "source": "paper PMC4260917", "about": "“Defective FANCI Binding by a Fanconi Anemia-Related FANCD2 Mutant” (PLoS ONE, 2014)", "target": "GFP-fused wild type chicken FANCD2 expressed in FANCD2-/- DT40 cells (chicken) (UniProt Q68Y81)", "experiment": "co-IP; anti-GFP beads on lysates of DT40 cells producing GFP-cFANCD2; lysis buffer 20 mM Tris-HCl (pH 7.5), 150 mM NaCl, 0.5% NP-40; lysates treated with Benzonase; western blot with anti-chicken FANCD2 and FANCI antibodies; called a cell-based pull-down assay", "note": "No constants are given. Whether binding was seen depends on the method and setting. Binding seen in cells or lysates may run through a third protein. Some results given as binding are weak or reduced against the parent protein; the word gives no strength."}
{"binder": "chicken FANCI, wild type, purified recombinant (natural protein, UniProt B0I564 1-1338, looked up, FANCI, chicken (Gallus gallus); also called cFANCI; WT cFANCI; source: E. coli BL21(DE3) codon(+)RIL, purified) MAQRILQLAAEGSPERLQEALQGLTEGELGDMVTRQALRGRETAALLKGIFKGSPCSQQSGVLRRLQVYKHCVSLVESGDLHVGKVSEIIGLLMLEARQLPGHALAELATLFVEVIKRGSLSNGKSLELFSTVLTALSNSKESLAYGKGELNGEEFKKQLINTLCSSKWDPQCVIHLANMFRDIPLSGEELQFVVEKVLRMFSKLDLQEIPPLVYQLLLLSAKGSKKTVLEGIISFFNQLDKRQKEEQRVPQSADLEVATVPLDQLRHVEGTVILHIVSAINLDQDIGEELIKHLKTEQQKDPGKALCPFSVSLLLSTAVKHRLQEQIFDFLKTSITRSCKDLQILQASKFLQDLCPQQYDVTAVILEVVKNSAFGWDHVTQGLVDLGFSLMESYEPKKSFGGKAAETNLGLSKMPAQQACKLGASILLETFKVHEPIRSDILEQVLNRVLTKAASPVSHFIDLLSNIVVSAPLVLQNSSSRVTETFDNLSFLPIDTVQGLLRAVQPLLKVSMSVRDSLILVLQKAIFSRQLDARKAAVAGFLLLLRNFKILGSLTSSQCSQAIGATQVQADVHACYNSAANEAFCLEILGSLRRCLSQQADVRLMLYEGFYDVLRRNSQLASSIMETLLSQIKQYYLPQQDLLPPLKLEGCIMAQGDQIFLQEPLAHLLCCIQHCLAWYKSTVHLCKGAEDEEEEEDVGFEQNFEEMLESVTRRMIKSELEDFELDKSADFSPSSGVGVKNNIYAIQVMGICEVLIEYNFKIGNFSKNKFEDVLGLFTCYNKLSEILKEKAGKNKSTLGNRIARSFLSMGFVSTLLTALFRDNAQSHEESLAVLRSSTEFMRYAVSVALQKVQQLEEMGQTDGPDGQNPEKMFQNLCKITRVLLWRYTSIPTAVEESGKKKGKSISLLCLEGLLRIFNTMQQLYAARIPQFLQALDITDGDAEEADINVTEKAAFQIRQFQRSLVNQLSSAEDDFNSKETQLLITILSTLSKLLDPGSQQFLQFLTWTVKICKENALEDLSCCKGLLTLLFSLHVLYKSPVSLLRELAQDIHACLGDIDQDVEIESRSHFAIVNVKTAAPTVCLLVLGQADKVLEEVDWLIKRLTILGSDTSEDSTQASNQTQALEKGVILQLGTLLTVFHELVQTALPAGSCVDSLLRSLSKTYAILTSLIKHYIQACRSTSNTVPGRLEKLVKLSGSHLTPQCYSFITYVQNIHSESLSFAEEKKKKKKEDETAVVSTVMAKVLRDTKPIPNLIFAIEQYEKFLIHLSKKSKVNLMQYMKLSTSRDFRINASMLDSVLQEQNTEDAENEPDNNQSGTAEQPDENQEPQKKRRRKK", "values": [{"measurement": "binding", "result": "binds"}]}
